Values from PubChem BioAssay AID1259299 (Sanger Institute, 2017)

- Aim: 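Kinases and colorectal mutated genes needed by colorectal cancer cells, with or without drugs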 (primary screen)
- System: human CAR1 colorectal cancer cells
- Reagents: siRNA pool against human genes
- Treatment: anchor drug BYL719 1 µM, cetuximab 5 µg/ml or trametinib 10 nM, or DMSO vehicle alone; exposure length not given
- Read-out: 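Mean replicate viability versus non-targeting controls, turned into robust z-scores, plus drug synergy scores for BYL719, cetuximab and trametinib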
- Reading the numbers: viability robust z-score, knock-down alone and viability, knock-down alone (DMSO): higher = more viable cells
- Units: viability, knock-down alone (DMSO) in fraction of control
- Rule for the call: 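Essential when viability robust z-score with knock-down alone (DMSO) is below -3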
- Calls: active = essential (knock-down alone); inactive = no change
Here is an unselected part of 794 deposited reagents. Of all reagents, 9 (1.1%) got an active call. 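Calls rest on knock-down alone; synergy scores play no part in calls, and no gene passed the synergy cut.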 Entries without a mark were called inactive. No viability above 1 is reported: the scale is capped. Further read-outs or replicates are left out here. Reagent sequences are not shown. The record does not give: the amount of reagent, the time to read-out.

CRKL gave viability robust z-score, knock-down alone 0.222; viability, knock-down alone (DMSO) = 0.948.
Silencing of NEK11 gave: viability robust z-score, knock-down alone 0.0507; viability, knock-down alone (DMSO) = 0.932.
Silencing of RIPK3 gave: viability robust z-score, knock-down alone 0.584; viability, knock-down alone (DMSO) = 0.981.
Against SKAP1, the entry reads viability robust z-score, knock-down alone 0.656; viability, knock-down alone (DMSO) = 0.988.
DGKD showed viability robust z-score, knock-down alone 0.572; viability, knock-down alone (DMSO) = 0.98.
Against UHMK1, the entry reads viability robust z-score, knock-down alone 0.789; viability, knock-down alone (DMSO) = 1.
After knock-down of CDK5R1 the results were viability robust z-score, knock-down alone -0.859; viability, knock-down alone (DMSO) = 0.848.
Against CDKN2D, the entry reads viability robust z-score, knock-down alone -0.365; viability, knock-down alone (DMSO) = 0.893.
After knock-down of ACVR2A the results were viability robust z-score, knock-down alone 0.789; viability, knock-down alone (DMSO) = 1.
Against NEK7, the values are viability robust z-score, knock-down alone -0.0623; viability, knock-down alone (DMSO) = 0.921.
With knock-down of POMK, the record shows viability robust z-score, knock-down alone 0.707; viability, knock-down alone (DMSO) = 0.992.
ATR gave viability robust z-score, knock-down alone -0.457; viability, knock-down alone (DMSO) = 0.885.
For IGF1R, the entry reads viability robust z-score, knock-down alone -1.16; viability, knock-down alone (DMSO) = 0.82.
Against NTRK3, the values are viability robust z-score, knock-down alone 0.789; viability, knock-down alone (DMSO) = 1.
With knock-down of TYK2 the results were viability robust z-score, knock-down alone 0.0733; viability, knock-down alone (DMSO) = 0.934.
Depletion of DCK resulted in: viability robust z-score, knock-down alone -0.296; viability, knock-down alone (DMSO) = 0.9.
After knock-down of DBF4, the screen gave viability robust z-score, knock-down alone 0.789; viability, knock-down alone (DMSO) = 1.
Depletion of ROCK1 resulted in: viability robust z-score, knock-down alone 0.789; viability, knock-down alone (DMSO) = 1.
CDK16 gave viability robust z-score, knock-down alone -1.15; viability, knock-down alone (DMSO) = 0.821.
TPD52L3 scored viability robust z-score, knock-down alone 0.789; viability, knock-down alone (DMSO) = 1.
With knock-down of LATS2, the screen gave viability robust z-score, knock-down alone 0.789; viability, knock-down alone (DMSO) = 1.
Knock-down of PRKAG1 came out at: viability robust z-score, knock-down alone 0.295; viability, knock-down alone (DMSO) = 0.954.
After knock-down of DYRK3, the screen gave viability robust z-score, knock-down alone 0.46; viability, knock-down alone (DMSO) = 0.97.
Knock-down of TNK2 gave: viability robust z-score, knock-down alone 0.789; viability, knock-down alone (DMSO) = 1.
After knock-down of NEK2, the screen gave viability robust z-score, knock-down alone -0.801; viability, knock-down alone (DMSO) = 0.853.
Against FASTK the deposit lists viability robust z-score, knock-down alone -0.118; viability, knock-down alone (DMSO) = 0.916.
For ACSL6, the values are viability robust z-score, knock-down alone 0.789; viability, knock-down alone (DMSO) = 1.
For NF1 the deposit lists viability robust z-score, knock-down alone 0.789; viability, knock-down alone (DMSO) = 1.
Against CREBBP the deposit lists viability robust z-score, knock-down alone 0.472; viability, knock-down alone (DMSO) = 0.971.
Silencing of BRDT came out at: viability robust z-score, knock-down alone -0.551; viability, knock-down alone (DMSO) = 0.876.
PANK1 showed viability robust z-score, knock-down alone 0.435; viability, knock-down alone (DMSO) = 0.967.
With knock-down of SRP72 the results were viability robust z-score, knock-down alone -0.201; viability, knock-down alone (DMSO) = 0.909.
For CAMK2G, the values are viability robust z-score, knock-down alone -1.61; viability, knock-down alone (DMSO) = 0.778.
For NRAS, the entry reads viability robust z-score, knock-down alone 0.284; viability, knock-down alone (DMSO) = 0.953.
Against CASP8, the values are viability robust z-score, knock-down alone 0.789; viability, knock-down alone (DMSO) = 1.
After knock-down of MYO3A the results were viability robust z-score, knock-down alone 0.789; viability, knock-down alone (DMSO) = 1.

Entries above whose target name begins with P or p (3):
POMK → viability robust z-score, knock-down alone = 0.707; viability, knock-down alone (DMSO) = 0.992
PRKAG1 → viability robust z-score, knock-down alone = 0.295; viability, knock-down alone (DMSO) = 0.954
PANK1 → viability robust z-score, knock-down alone = 0.435; viability, knock-down alone (DMSO) = 0.967
